This is an account of results in article PMC4907476.

Protein sequences, listed by entry. Tags and fused reporters are not part of them. Lines headed by an entry give the natural chain unless they say otherwise; changes in a name come on top.
UniProt P47900: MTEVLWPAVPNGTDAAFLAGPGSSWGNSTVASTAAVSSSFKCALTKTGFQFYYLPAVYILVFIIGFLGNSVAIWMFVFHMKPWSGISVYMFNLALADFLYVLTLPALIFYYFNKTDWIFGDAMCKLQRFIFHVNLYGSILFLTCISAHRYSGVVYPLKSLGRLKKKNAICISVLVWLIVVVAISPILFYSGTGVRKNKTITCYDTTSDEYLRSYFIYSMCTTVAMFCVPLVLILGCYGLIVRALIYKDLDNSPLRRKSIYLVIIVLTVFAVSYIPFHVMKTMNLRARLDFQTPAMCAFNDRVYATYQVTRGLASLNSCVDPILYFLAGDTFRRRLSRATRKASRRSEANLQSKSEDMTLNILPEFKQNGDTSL
UniProt Q8WUM4: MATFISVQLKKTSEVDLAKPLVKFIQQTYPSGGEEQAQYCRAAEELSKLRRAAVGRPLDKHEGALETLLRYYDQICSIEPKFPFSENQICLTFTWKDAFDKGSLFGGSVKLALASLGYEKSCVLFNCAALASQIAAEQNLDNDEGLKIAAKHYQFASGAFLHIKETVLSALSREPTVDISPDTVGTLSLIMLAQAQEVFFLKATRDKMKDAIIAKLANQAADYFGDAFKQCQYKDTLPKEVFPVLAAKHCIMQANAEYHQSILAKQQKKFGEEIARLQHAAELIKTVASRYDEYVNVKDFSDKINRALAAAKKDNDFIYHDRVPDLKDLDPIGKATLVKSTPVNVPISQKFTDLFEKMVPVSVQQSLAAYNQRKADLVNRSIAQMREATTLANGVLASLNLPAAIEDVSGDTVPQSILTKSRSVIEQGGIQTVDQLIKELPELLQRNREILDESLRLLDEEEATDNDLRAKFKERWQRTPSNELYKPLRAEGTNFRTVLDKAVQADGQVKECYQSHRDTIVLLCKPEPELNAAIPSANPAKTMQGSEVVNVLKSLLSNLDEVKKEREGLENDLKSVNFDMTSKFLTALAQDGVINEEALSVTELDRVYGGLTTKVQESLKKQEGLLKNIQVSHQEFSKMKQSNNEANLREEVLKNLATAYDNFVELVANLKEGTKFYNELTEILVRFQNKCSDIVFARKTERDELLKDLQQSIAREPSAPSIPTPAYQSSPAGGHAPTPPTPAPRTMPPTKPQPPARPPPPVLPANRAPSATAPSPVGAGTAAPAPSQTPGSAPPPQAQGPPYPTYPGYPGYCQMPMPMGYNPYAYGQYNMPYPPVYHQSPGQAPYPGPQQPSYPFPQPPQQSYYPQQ

Assay [1] addresses FLAG-P2Y1 wild type (full-length N-terminal FLAG-tagged P2Y1 purinergic receptor) (human) (UniProt P47900). Briefly: co-IP; HeLa cells transfected with FLAG-P2Y1 WT or Y155A, unstimulated or stimulated with 10 uM ADP for the indicated times (up to 120 min); lysis in NP-40 buffer (0.5% NP40, 20 mM Tris-HCl pH 7.4, 150 mM NaCl); anti-FLAG antibody and protein-A sepharose overnight at 4 C; immunoblot for endogenous ALIX. (In general: Immunoblotting shows a protein as a band on a membrane.)

Assay [2] addresses FLAG-P2Y1 Y155A mutant (human) (UniProt P47900). The description is as above.

These are yes or no findings as the source states them, for the method shown. In cells and extracts the contact can be indirect. Some results given as binding are weak or reduced against the parent protein; the word gives no strength.

“ALIX (adaptor protein), endogenous (from UniProt Q8WUM4 1-868)”: the binding result was “binds” in assay [1] and “binds weakly” in assay [2].
